The values are deposited in ChEMBL (CHEMBL3988442, “University of Dundee, Small-Polar-MMV Screening Library” (2021)).

The chains behind the UniProt entries cited, without tags or fusion partners.
UniProt E9BF75, entry or part of it: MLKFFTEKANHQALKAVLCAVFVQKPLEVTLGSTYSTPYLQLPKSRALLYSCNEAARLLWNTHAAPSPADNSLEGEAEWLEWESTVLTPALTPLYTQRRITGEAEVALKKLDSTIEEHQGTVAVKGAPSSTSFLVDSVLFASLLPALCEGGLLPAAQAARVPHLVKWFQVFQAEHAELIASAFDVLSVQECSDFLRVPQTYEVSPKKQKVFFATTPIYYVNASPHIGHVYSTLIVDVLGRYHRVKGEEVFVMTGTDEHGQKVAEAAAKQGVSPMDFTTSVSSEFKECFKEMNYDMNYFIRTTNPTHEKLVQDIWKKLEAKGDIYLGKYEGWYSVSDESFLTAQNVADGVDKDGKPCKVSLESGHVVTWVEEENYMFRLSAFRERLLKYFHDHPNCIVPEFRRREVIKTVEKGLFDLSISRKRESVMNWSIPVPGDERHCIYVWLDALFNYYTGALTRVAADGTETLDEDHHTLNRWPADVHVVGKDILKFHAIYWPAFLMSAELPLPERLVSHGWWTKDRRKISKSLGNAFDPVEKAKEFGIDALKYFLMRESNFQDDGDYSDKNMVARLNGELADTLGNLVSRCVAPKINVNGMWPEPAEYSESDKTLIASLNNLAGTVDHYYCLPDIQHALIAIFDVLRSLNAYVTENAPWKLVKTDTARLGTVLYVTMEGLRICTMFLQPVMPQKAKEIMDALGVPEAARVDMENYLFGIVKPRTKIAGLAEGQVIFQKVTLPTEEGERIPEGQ

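Primary screen of methionyl-tRNA synthetase; the read-out is not stated. Target: Methionyl-tRNA synthetase (putative), Leishmania donovani (UniProt E9BF75). The test concentration is not given. Values are per cent inhibition. Of about 68,000 compounds tested this way, about 24 (0.035%) reached 50% or more in at least one test.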

Results are percentages, as filed.
The record does not define 0% and 100%; most values in the screen are far below 50% and negative numbers occur (in some assays of this library far below -100).
This is an unselected part of the compounds tested.

SMILES,inhibition
CN(C)[C@@H]1CCN(C(=O)c2cccc(C#N)c2)[C@H]1Cc1cnn(C)c1,11.44
Cc1nc2c(C(=O)N[C@H]3C[C@H]4CN(C)CCN4C3)cccc2[nH]1,8.933
Cc1noc(NS(=O)(=O)c2ccc(Cl)s2)c1C,21.7
COCCNc1nc2c(c(NCC3CCOC3)n1)CCNCC2 (stereo not drawn),1.818
CC(=O)N1CCN(c2ccccc2CNc2ccc3[nH]ncc3c2)CC1,12.53
COc1ccccc1OC1CCN(C(=O)c2cccc(O)c2C)CC1,12.57
Cc1cc(C)n(CC2CCCN2C(=O)c2ccc3[nH]c(=O)[nH]c3c2)n1 (stereo not drawn),9.763
CCCC(C)N(C)C(=O)c1nc(S(C)(=O)=O)n2ccccc12 (stereo not drawn),19.7
O=C(NC1CC1)c1cnc2n1CCCC2,16.01
CCN1Cc2c(C(=O)NC(C)C(C)C)ncn2-c2ccccc2S1(=O)=O (stereo not drawn),-2.857
CCc1noc(C(C)N2CCN(CCN3CCCC3=O)CC2)n1 (stereo not drawn),22.22
Cc1ccc(C2COCCN2C(=O)c2cccc(N(C)C)c2)o1 (stereo not drawn),9.019
O=C(c1csc(-c2ncccn2)n1)N1CCCC1Cn1cccn1 (stereo not drawn),4.749
COCCN1CC2(CCCN(c3ncc(Cl)cc3F)C2)CCC1=O (stereo not drawn),8.163
CNc1cc(C2CN(Cc3cccnc3NC)CCO2)nc(C)n1 (stereo not drawn),10.48
O=C(C1CC1)N1CC[C@H]2[C@@H]1CCC(=O)N2c1ccccc1,10.22
N#Cc1ncn(CCS(=O)(=O)c2ccc(Cl)cc2)n1,6.25
CC(=O)C(C)CC(=O)N(Cc1cccc(C)c1)C(C)C (stereo not drawn),16.85
CCc1c(C)nn2c(O)cc(C3CCN(C(=O)c4ccccn4)C3)nc12 (stereo not drawn),13.37
CN1CCCC(N(C)S(=O)(=O)c2cccc3ncccc23)C1 (stereo not drawn),11.29
c1cnn(CC2CCCN2Cc2nc(C3CC3)no2)c1 (stereo not drawn),11.68
Cc1nc(C)n(CC2CCCN2Cc2ccc(F)cc2C#N)n1 (stereo not drawn),0.2577
COCCNC(=O)c1nnn(Cc2ccccc2)c1OC,-19.85
CC(=O)N1CC(=O)N(c2ccsc2)CC12CCN(Cc1ccoc1)C2 (stereo not drawn),12.5
Cc1cn2c(n1)CCC(NC(=O)c1cc(Br)cn1C)C2 (stereo not drawn),5.594
Cc1cc(C)nc(-n2nc(C)c3c2NC(=O)CSC3c2cnn(C)c2)n1 (stereo not drawn),11.82
CC(=O)NCCCSCCOc1cccc(C#N)c1,11.81
CN(Cc1cc(-c2ccccc2)no1)Cc1nccn1C,5.155
CCOCc1ccccc1NC(=O)NC1CCN(C(=O)OCC)CC1,6.923
Cc1ccc(-c2cc(CN3CCc4cncnc4C3)on2)cc1,15.76
O=C(NC1CC(=O)N(C2CC2)C1)c1ccc(Cl)s1 (stereo not drawn),4.348
Cc1ccsc1CN(C)Cc1nc2c(cnn2C)c(=O)[nH]1,8.589
CC(CCN1CCCC1=O)NCc1cnc(C2CCC2)s1 (stereo not drawn),13.48
Cc1cc(C)cc(-c2cccc(CC3(C(=O)O)CCOCC3)c2)c1,-11.99
Cc1ccccc1C1CCN(CCNC(=O)CS(C)(=O)=O)C1 (stereo not drawn),14.75
COC(=O)CNC(=O)c1cn(Cc2ccccc2F)nn1,3.873
CN1CCCC[C@@H]2[C@H]1[C@@H](c1ccccc1)CCN2C(=O)c1ccccc1,22.26
CC(C)C(C(=O)N1CCN(Cc2ccncc2)CC1)n1cncn1 (stereo not drawn),13.39
Cc1cnc2c(c1NCc1ccncc1)c(=O)n(C)c(=O)n2C,8.374
CC[C@H]1N(Cc2ccc(OC)cc2)CCC[C@]12CCC(=O)N2C,9.295
CCc1nnc2n1CCN(C(=O)c1cc(Cl)c[nH]1)C2,19.47
Cc1nc(CNC(=O)NC(C)c2ccc3c(c2)OCCCO3)cs1 (stereo not drawn),8.877
Cc1nc(CNC(=O)NCc2ccc(OCC3CC3)nc2)cs1,9.922
CN(C)C(=O)c1c[nH]nc1-c1ccc(CNC(=O)c2cnccn2)cc1,8.1
O=C(CNC(=O)N(Cc1ccoc1)C1CCCCC1)N1CCCC1,3.958
CCc1ccc2c(C3CN(CC4CCC4)C3)ncn2c1,26.18
NC(=O)CCN1C(=O)CC(Cc2ccc(F)cc2)C1=O (stereo not drawn),9.699
COc1cccc(CC(=O)N2CCCC(c3n[nH]c4nccnc34)C2)c1 (stereo not drawn),10.94
CCn1c(CN2CCOC(Cn3cccn3)C2)nc2c(F)cccc21 (stereo not drawn),8.696
CC(=O)Nc1nc(CN2CCCCC2Cn2cncn2)cs1 (stereo not drawn),4.843
O=S(=O)(c1cccnc1)N1CCC(OCCCc2ccccc2)C1 (stereo not drawn),3.141
Cn1ccnc1C1(O)CCN(C(=O)CCc2ccccc2)CC1,6.395
Cc1nc(CCCN2CCOCC2)n(Cc2ccc(F)cc2)n1,2.01
COc1cc(-c2nccn2C(C)CCn2cccn2)cc2c1OCO2 (stereo not drawn),10.13
O=C(Nc1ccc(-c2nc3c([nH]2)CCNC3)cc1)N1CCCC1,11.68
COc1cccc(N2CCN(CC(O)c3ccc(C)cc3)CC2)c1 (stereo not drawn),6.338
CC(C)c1ncc2c(n1)CN(Cc1ccc(C(N)=O)cc1)CC2,7.143
O=C(C1CCCOC1)N1CCc2ccc(F)cc21 (stereo not drawn),11.59
CCOCCCNC(=O)Nc1ccc(F)c(C(N)=O)c1,24.04
CC(NC(=O)NCCN1CCCCCC1=O)c1nncn1C (stereo not drawn),14.92

5 of the entries, repeated:

SMILES	inhibition
O=C(Nc1ccc(-c2nc3c([nH]2)CCNC3)cc1)N1CCCC1	11.68
O=C(C1CCCOC1)N1CCc2ccc(F)cc21 (stereo not drawn)	11.59
CNc1cc(C2CN(Cc3cccnc3NC)CCO2)nc(C)n1 (stereo not drawn)	10.48
CC(=O)Nc1nc(CN2CCCCC2Cn2cncn2)cs1 (stereo not drawn)	4.843
Cn1ccnc1C1(O)CCN(C(=O)CCc2ccccc2)CC1	6.395